Laboratory results: article PMC7819943, “Rice protein-binding microarrays: a tool to detect cis-acting elements near promoter regions in rice”
The list shows a part of the results.

Protein sequences, listed by entry. Tags and fused reporters are not part of them.
UniProt Q0JBA9, entry or part of it: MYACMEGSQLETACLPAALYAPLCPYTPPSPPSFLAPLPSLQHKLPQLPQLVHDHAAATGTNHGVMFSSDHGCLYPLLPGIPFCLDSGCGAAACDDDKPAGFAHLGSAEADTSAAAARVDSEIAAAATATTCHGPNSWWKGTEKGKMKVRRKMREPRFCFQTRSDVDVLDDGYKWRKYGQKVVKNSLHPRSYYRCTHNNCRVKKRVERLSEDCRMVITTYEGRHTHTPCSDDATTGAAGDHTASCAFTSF

Target: OsWRKY34 (Oryza sativa, UniProt Q0JBA9 1-250)
Experiment: protein-binding microarray (RPBM); PBS, 2% BSA, 51.3 ng/ul salmon testes DNA, 50 uM zinc acetate, 200 nM TF, 25 C, 1 h; high values mean tight binding
Conditions: protein: recombinant; tags: N-terminal polyhistidine and DsRed monomer fusion (pET32a); label: CyDye5-dUTP incorporated in the synthesized complementary strand; 3' TTTTT single-stranded linker to array surface; dsDNA, one strand shown
Method in brief: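 Transcription factors were made in E. coli BL21-CodonPlus as N-terminal fusions to a polyhistidine tag and DsRed, then purified on Ni–NTA. After primer extension with Cy5-dUTP and blocking with 2% BSA, a custom Agilent array was exposed for 1 h at 25 °C to 200 nM protein in PBS, 2% BSA, salmon testes DNA and 50 µM zinc acetate. Washed arrays were scanned on an Axon 4000B, and the binding signal is per-feature fluorescence intensity in arbitrary units.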

Row | Sequence | binding signal
1 | GGCCCACTCCAACTCGACCCAACCCAACCCAAACCCAACCCGGAGTCACCTAGTGCAG | 9170 fluorescence intensity (a.u.)
2 | CTTGGGCGTCTTGTGTTTGTGGGTGAGGTAGCCAGCTGCCCGGAGTCACCTAGTGCAG | 9910 fluorescence intensity (a.u.)
3 | ACTTTATTGTTTTTCTTCTTATTTTATTTCTCTGTTCTTTCGGAGTCACCTAGTGCAG | 10300 fluorescence intensity (a.u.)
4 | GAGTATTTGAGTTGTTCCTTCCGCTTGTTGGGGAGCCATGCGGAGTCACCTAGTGCAG | 8460 fluorescence intensity (a.u.)
5 | TTATAACATGTCATTAATAAAGGGCATTATGCAACTAATACGGAGTCACCTAGTGCAG | 64200 fluorescence intensity (a.u.)
6 | GATAGCGATGAGAGTGGGTGTGGGGTGGCGACGACGGATTCGGAGTCACCTAGTGCAG | 10100 fluorescence intensity (a.u.)
7 | CGTCTCCAAGCTCCGGACCCAGCTGGGCGTCATCCACCCGCGGAGTCACCTAGTGCAG | 9510 fluorescence intensity (a.u.)
8 | ACCAAACACAGAATCATCATCCATCGATCCAAGTAGCTAGCGGAGTCACCTAGTGCAG | 9540 fluorescence intensity (a.u.)
9 | AATATCACACTGCCCGCGCCCCTGTTCGCAGCGCATGTGACGGAGTCACCTAGTGCAG | 8380 fluorescence intensity (a.u.)
10 | ACTACAATCCTCTTCCGTCGAAGAATTTCATAAGTCATAACGGAGTCACCTAGTGCAG | 8790 fluorescence intensity (a.u.)
11 | GACCTAGTCAAATTAGCCACGTAGATGTCATGTCGGTCAACGGAGTCACCTAGTGCAG | 8290 fluorescence intensity (a.u.)
12 | AGCTATCCAACCTAACCCATCGCACGTCCTTTTTCCTCGCCGGAGTCACCTAGTGCAG | 9030 fluorescence intensity (a.u.)
13 | TCGGTTGAACCCCGTCGATCTCTATCCCTCTCTTACTCTCCGGAGTCACCTAGTGCAG | 8060 fluorescence intensity (a.u.)
14 | TCTGCTTTGGAGCTTGTCGCGGCCTGTTCTTTTTCTTTACCGGAGTCACCTAGTGCAG | 11000 fluorescence intensity (a.u.)
15 | GCTCATCCGCTTGCCTCGTCGCTGCTGCTGCTGCTGATCCCGGAGTCACCTAGTGCAG | 10100 fluorescence intensity (a.u.)
16 | CTTTTTTATATGCATCCTTATAAACATGTATTTTTTTTATCGGAGTCACCTAGTGCAG | 9540 fluorescence intensity (a.u.)
17 | AAACCATTTTTTCCACCATATTAATTAATTCACACTGTCACGGAGTCACCTAGTGCAG | 9610 fluorescence intensity (a.u.)
18 | GTCAGAGGGTGGTTACAAGTCCACACACATGTTGCTTTCCCGGAGTCACCTAGTGCAG | 9050 fluorescence intensity (a.u.)
19 | CCATGTATAATATGTGATGTTTTTCTCCGTGATCTAATCTCGGAGTCACCTAGTGCAG | 8620 fluorescence intensity (a.u.)
20 | TTACTGGGAGTCTGATATACATTTCTTTCTTGTCTTCCTGCGGAGTCACCTAGTGCAG | 11400 fluorescence intensity (a.u.)
21 | TTTTTGCATTCGGGCCCCTTGCCGCCGGGTTTTCCTAAAACGGAGTCACCTAGTGCAG | 8220 fluorescence intensity (a.u.)

2 entries drawn at random from those above:
Row | Sequence | binding signal
20 | TTACTGGGAGTCTGATATACATTTCTTTCTTGTCTTCCTGCGGAGTCACCTAGTGCAG | 11400 fluorescence intensity (a.u.)
9 | AATATCACACTGCCCGCGCCCCTGTTCGCAGCGCATGTGACGGAGTCACCTAGTGCAG | 8380 fluorescence intensity (a.u.)

Further records.

Row | Sequence | binding signal
22 | ATGGTGGTGGAGGATGATGTCGGCGAGGTGGTCAACGACGCGGAGTCACCTAGTGCAG | 11000 fluorescence intensity (a.u.)
23 | GCATCGCCCTATGGTTTATTTTGGCTAGCACTAAGTATATCGGAGTCACCTAGTGCAG | 9640 fluorescence intensity (a.u.)
24 | TCCAACTCCGGCAGGGAGCATACGGGTTAGGGTTTGGGGTCGGAGTCACCTAGTGCAG | 8380 fluorescence intensity (a.u.)
25 | CCCACACACCCCAGGCCCCACCAACCCACCGGCTGCCGCCCGGAGTCACCTAGTGCAG | 9580 fluorescence intensity (a.u.)
26 | ACACACCTTGCCATCTAATTATTACTTCTTCAATCTTAAACGGAGTCACCTAGTGCAG | 10500 fluorescence intensity (a.u.)
27 | GGGGAGGTGGAGATGAGATGAGGCGGCGGGGTGGCGGTGGCGGAGTCACCTAGTGCAG | 13700 fluorescence intensity (a.u.)
28 | TCCCATGCCACCAATATTGGCCCACTGTCACCTCCTAACCCGGAGTCACCTAGTGCAG | 8610 fluorescence intensity (a.u.)
29 | GTCCTCACCCACATGCCGCTGTCACCACCGCTCTGGTCCTCGGAGTCACCTAGTGCAG | 8030 fluorescence intensity (a.u.)
30 | ATATTATATATTACCTCTGCCTGCATGGTCCATGTACCATCGGAGTCACCTAGTGCAG | 8720 fluorescence intensity (a.u.)
31 | TAGTGGTTATGGGTTTGTGTTTCTATGGTTTTGTGAAATACGGAGTCACCTAGTGCAG | 9100 fluorescence intensity (a.u.)
32 | GCTATCCGTCCACCCGTCCATTCATCCTCGCCTTTGCCAGCGGAGTCACCTAGTGCAG | 9210 fluorescence intensity (a.u.)
33 | CAGAAACACAATCGTCGCTCGAATCTGCTTCTCATTCTTTCGGAGTCACCTAGTGCAG | 8110 fluorescence intensity (a.u.)
34 | TATTACCACGCTTAACCGCGCCAATTACTTCGCCGGGTTACGGAGTCACCTAGTGCAG | 9830 fluorescence intensity (a.u.)
35 | TCCTCAATTTCACCTCGTGTTCCAATTCCACTCCGCTCACCGGAGTCACCTAGTGCAG | 8330 fluorescence intensity (a.u.)
36 | GCTAGCGGTGCACTTCGTTTTTCTGCTGCACACGCGTCCACGGAGTCACCTAGTGCAG | 10500 fluorescence intensity (a.u.)
37 | ATCTTCTCGCCTCTGCTTCTTGCTGCTGCCTAGCTTAGCTCGGAGTCACCTAGTGCAG | 9550 fluorescence intensity (a.u.)
38 | GGGAACTTCAATCTAGTTTATCCCTTTGCTCAATTTCAGTCGGAGTCACCTAGTGCAG | 9180 fluorescence intensity (a.u.)
39 | CAGCCCACGAAGTCACCAACTGACAGCCCAGCCCATTAACCGGAGTCACCTAGTGCAG | 8450 fluorescence intensity (a.u.)
40 | GGGATTAGCAGAACAAGACCTAAAGGGGTAGGGTTCCACTCGGAGTCACCTAGTGCAG | 9130 fluorescence intensity (a.u.)
41 | GAAGTTGAACACTCCGTTAATTTTTAGTTGATTTCTTCCACGGAGTCACCTAGTGCAG | 8270 fluorescence intensity (a.u.)
42 | ATGTGCTCGACATATGTTTTTTTATTTGTTTTGCTGATGACGGAGTCACCTAGTGCAG | 8740 fluorescence intensity (a.u.)
